Results are given in words; binding and its absence hold for the method and conditions named. In cells and extracts the contact can be indirect. These calls come from enrichment with a bait or labelling near it, and not all partners need be listed. Tags and fused reporters may be left off the sequences shown.
Biological target: 3x-Flag-tagged human DNA2 (human) (UniProt P51530)
Experiment: affinity purification with mass spectrometry; 3x-Flag-DNA2 from transfected 293T cell extract held on anti-Flag M2 magnetic beads overnight; IP buffer 50 mM HEPES-KOH pH 7.4, 150 mM NaCl, 0.1% NP40, 10% glycerol; one wash with 500 mM NaCl; eluted with 3x-Flag peptide; gel bands analysed by LC/MS; empty vector as control

Sequences of proteins named here, by UniProt entry; tags and fusion partners are left off.
UniProt P09874: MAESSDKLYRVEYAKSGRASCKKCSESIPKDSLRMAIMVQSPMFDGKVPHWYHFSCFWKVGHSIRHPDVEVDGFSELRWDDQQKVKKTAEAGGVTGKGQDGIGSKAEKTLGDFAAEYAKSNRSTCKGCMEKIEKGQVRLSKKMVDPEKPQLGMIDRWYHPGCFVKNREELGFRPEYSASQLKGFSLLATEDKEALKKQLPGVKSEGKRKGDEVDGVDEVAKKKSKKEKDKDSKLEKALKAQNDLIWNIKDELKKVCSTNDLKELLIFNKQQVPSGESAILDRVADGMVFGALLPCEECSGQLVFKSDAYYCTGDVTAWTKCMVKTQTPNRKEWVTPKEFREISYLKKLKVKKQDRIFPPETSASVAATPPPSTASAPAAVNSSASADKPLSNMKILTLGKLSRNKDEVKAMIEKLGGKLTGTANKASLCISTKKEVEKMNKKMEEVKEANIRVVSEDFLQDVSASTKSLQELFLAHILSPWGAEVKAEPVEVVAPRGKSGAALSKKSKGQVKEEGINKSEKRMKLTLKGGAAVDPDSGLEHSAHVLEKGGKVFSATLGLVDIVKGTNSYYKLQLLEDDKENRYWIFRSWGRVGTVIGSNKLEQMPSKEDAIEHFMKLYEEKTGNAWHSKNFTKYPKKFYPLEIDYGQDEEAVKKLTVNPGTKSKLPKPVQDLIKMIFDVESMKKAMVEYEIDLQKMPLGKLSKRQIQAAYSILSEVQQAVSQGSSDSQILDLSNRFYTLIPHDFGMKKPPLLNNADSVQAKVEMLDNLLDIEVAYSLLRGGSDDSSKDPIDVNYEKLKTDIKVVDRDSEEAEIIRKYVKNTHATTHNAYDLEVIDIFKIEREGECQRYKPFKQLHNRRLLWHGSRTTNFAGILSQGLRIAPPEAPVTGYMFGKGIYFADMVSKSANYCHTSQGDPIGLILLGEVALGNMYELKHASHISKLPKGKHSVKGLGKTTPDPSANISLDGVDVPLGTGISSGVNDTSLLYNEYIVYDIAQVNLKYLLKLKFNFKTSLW
UniProt P54727: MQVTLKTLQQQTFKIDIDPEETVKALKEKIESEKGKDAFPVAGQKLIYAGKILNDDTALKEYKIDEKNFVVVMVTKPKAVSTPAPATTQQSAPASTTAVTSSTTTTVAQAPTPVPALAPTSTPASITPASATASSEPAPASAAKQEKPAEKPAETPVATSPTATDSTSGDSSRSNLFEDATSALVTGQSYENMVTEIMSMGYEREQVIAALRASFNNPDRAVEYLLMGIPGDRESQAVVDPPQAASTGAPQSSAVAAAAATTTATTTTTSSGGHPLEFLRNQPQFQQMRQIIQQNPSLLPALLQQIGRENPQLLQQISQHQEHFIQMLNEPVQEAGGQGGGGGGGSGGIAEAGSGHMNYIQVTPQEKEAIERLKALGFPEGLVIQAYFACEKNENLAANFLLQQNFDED
UniProt P12004: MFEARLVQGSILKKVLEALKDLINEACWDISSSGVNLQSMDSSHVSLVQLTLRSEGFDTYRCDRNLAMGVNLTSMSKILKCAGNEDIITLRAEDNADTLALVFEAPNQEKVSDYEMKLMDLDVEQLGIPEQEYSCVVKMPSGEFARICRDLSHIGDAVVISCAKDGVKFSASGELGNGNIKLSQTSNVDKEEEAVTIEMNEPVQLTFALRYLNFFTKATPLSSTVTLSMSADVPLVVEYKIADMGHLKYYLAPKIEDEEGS
UniProt P54725: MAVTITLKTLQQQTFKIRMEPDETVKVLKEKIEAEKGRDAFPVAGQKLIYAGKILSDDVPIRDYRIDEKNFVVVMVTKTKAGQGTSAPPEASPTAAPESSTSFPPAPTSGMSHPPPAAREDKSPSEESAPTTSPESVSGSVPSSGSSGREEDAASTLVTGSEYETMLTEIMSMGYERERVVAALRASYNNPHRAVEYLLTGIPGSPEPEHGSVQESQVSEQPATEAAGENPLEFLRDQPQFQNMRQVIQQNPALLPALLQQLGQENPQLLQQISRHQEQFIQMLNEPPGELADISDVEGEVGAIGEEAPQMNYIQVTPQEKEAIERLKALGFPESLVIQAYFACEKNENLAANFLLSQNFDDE

Row | binding | Substance
1 | binds | DNA-PK (human (endogenous in 293T)) (enzyme)
2 | binds | PARP1 (from UniProt P09874 1-1014) (enzyme)

The next lines start with the substance.

Row | Substance | binding
3 | RAD23B (from UniProt P54727 1-409) | binds
4 | PCNA (from UniProt P12004 1-261) | binds
5 | RAD23A (from UniProt P54725 1-363) | binds

From doi:10.1101/2025.04.04.647332
